In patent US11058780B2, “Palpable marker composition” (TECHNICAL UNIVERSITY OF DENMARK, priority 2016, dated 2021):
Some results were stated once for a whole list of compounds, not compound by compound.

Assay: Injection of carbohydrate ester formulations into PBS buffer, solid marker formation
Format: physicochemical
Details: 210 mg sugar ester mixed with 20% EtOH; 50-80 μL into 2 mL PBS, 25 G needle

Time to form solid markers after injection into PBS, ≤ 1 h:
CC(C)C(=O)OC[C@H]1O[C@@H](O[C@H]2[C@H](OC(=O)C(C)C)[C@@H](OC(=O)C(C)C)C(OC(=O)C(C)C)O[C@@H]2COC(=O)C(C)C)[C@H](OC(=O)C(C)C)[C@@H](OC(=O)C(C)C)[C@H]1OC(=O)C(C)C (stereo partly drawn) [LOIB, α,β Lactose Octaisobutyrate]
CC(C)C(=O)OCC1O[C@H](OCC2O[C@@H](O[C@]3(COC(=O)C(C)C)O[C@H](COC(=O)C(C)C)[C@@H](OC(=O)C(C)C)[C@H]3OC(=O)C(C)C)C(OC(=O)C(C)C)[C@@H](OC(=O)C(C)C)[C@@H]2OC(=O)C(C)C)C(OC(=O)C(C)C)[C@@H](OC(=O)C(C)C)[C@H]1OC(=O)C(C)C (stereo partly drawn) [raffinose undecaisobutyrate, Raffinose Undecaisobutyrate]
CC(C)C(=O)OCC1O[C@@H](O[C@H]2OC(COC(=O)C(C)C)[C@@H](OC(=O)C(C)C)[C@H](OC(=O)C(C)C)C2OC(=O)C(C)C)C(OC(=O)C(C)C)C(OC(=O)C(C)C)[C@H]1OC(=O)C(C)C (stereo partly drawn) [trehalose octaisobutyrate, Trehalose Octaisobutyrate]
